# Reference: paper PMC7819943, “Rice protein-binding microarrays: a tool to detect cis-acting elements near promoter regions in rice”
# Amino acid sequences for entries named in this document (tags omitted).
# UniProt Q0JBA9, entry or part of it: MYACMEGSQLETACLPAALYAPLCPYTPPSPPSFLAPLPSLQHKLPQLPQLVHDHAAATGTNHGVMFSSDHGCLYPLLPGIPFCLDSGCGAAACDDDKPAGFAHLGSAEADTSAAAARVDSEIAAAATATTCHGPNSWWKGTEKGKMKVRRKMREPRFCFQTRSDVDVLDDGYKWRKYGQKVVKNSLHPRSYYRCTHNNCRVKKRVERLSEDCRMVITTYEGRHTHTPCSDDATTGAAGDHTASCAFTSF
# The other results are listed elsewhere or left out.
# Biological target: OsWRKY34 (Oryza sativa, UniProt Q0JBA9 1-250)
# Experiment: protein-binding microarray (RPBM); PBS, 2% BSA, 51.3 ng/ul salmon testes DNA, 50 uM zinc acetate, 200 nM TF, 25 C, 1 h; high values mean tight binding
# Conditions: protein: recombinant; tags: N-terminal polyhistidine and DsRed monomer fusion (pET32a); label: CyDye5-dUTP incorporated in the synthesized complementary strand; 3' TTTTT single-stranded linker to array surface; dsDNA, one strand shown
# How it was run: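 Binding signal is defined as the fluorescence intensity of each feature in arbitrary units, read on an Axon 4000B scanner. Transcription factors with N-terminal polyhistidine and DsRed fusions came from E. coli BL21-CodonPlus and were purified on Ni–NTA. They were incubated at 200 nM for 1 h at 25 °C on a custom Agilent array that had been made double-stranded with Cy5-dUTP, with 50 µM zinc acetate present, and the array was washed.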
row,Sequence,binding signal
1,GTCTCCACGTATTTCTCTCTTCCATAGCAGCAGATGTCCTCGGAGTCACCTAGTGCAG,8090 fluorescence intensity (a.u.)
2,ATCTTACTTATTTGGTTTTGGTCCGCATACTGGTAGTATGCGGAGTCACCTAGTGCAG,8490 fluorescence intensity (a.u.)
3,GCAACATCCATCCGTCCATCCCCGATCCAACGGCCGATCCCGGAGTCACCTAGTGCAG,9530 fluorescence intensity (a.u.)
4,GTCAAACGTTGTTCAAAAAGTCAATGGCGTCATACATTAGCGGAGTCACCTAGTGCAG,8600 fluorescence intensity (a.u.)
5,AGTATCGCCTTTCGCCGTATATTTCGCCTCACATTTGAACCGGAGTCACCTAGTGCAG,10100 fluorescence intensity (a.u.)
6,GCTGTAACCACTAGCCACCCATATATACTGCCATGAGACCCGGAGTCACCTAGTGCAG,8610 fluorescence intensity (a.u.)
7,GATATCTCGTACCTCATATTACCTCGTGGTACCTCCTCAACGGAGTCACCTAGTGCAG,9380 fluorescence intensity (a.u.)
8,TTTGTTTTTGTTGTAAGCCCTTTTGCCCATACTATGACCACGGAGTCACCTAGTGCAG,12200 fluorescence intensity (a.u.)
9,CGTTTTCTTTATACTCCCTCCGTTTCGTTTTATTTGACGTCGGAGTCACCTAGTGCAG,8790 fluorescence intensity (a.u.)
10,ATAGCTCATTCATACAATAGTTACATACTACACTATTAATCGGAGTCACCTAGTGCAG,8680 fluorescence intensity (a.u.)
11,GTGTGTTCGAGTTTCATCGCGATTCGATCGTTGTCTACTGCGGAGTCACCTAGTGCAG,8610 fluorescence intensity (a.u.)
12,CTCGATTGCGTGTTGTAGATTTTGTGTTTTTGTTCTTGCGCGGAGTCACCTAGTGCAG,8030 fluorescence intensity (a.u.)
13,TATTGGTAAAAAAGTTGACTTTTGCCATCTTTTGTGTTCTCGGAGTCACCTAGTGCAG,9050 fluorescence intensity (a.u.)
14,TCATCAATCATTGTCACTTACTACTTTTGTCTTCGTCTCCCGGAGTCACCTAGTGCAG,10800 fluorescence intensity (a.u.)
15,TTGCAAGATACCAAATTTGTTACTTTCTTTATATATTTTTCGGAGTCACCTAGTGCAG,8930 fluorescence intensity (a.u.)
16,AAACGTCAAAAGACTCAAAACCCAAAACCCGCGTGCTGACCGGAGTCACCTAGTGCAG,8030 fluorescence intensity (a.u.)
17,TCTAATCTACGATCCGATCCCACTGTTATATTCGTTGCAACGGAGTCACCTAGTGCAG,9530 fluorescence intensity (a.u.)
18,ATCCCCAATCTTCTCAATTCGCGAATTCATCCTCTCCAGCCGGAGTCACCTAGTGCAG,8060 fluorescence intensity (a.u.)
19,CTTTTGACTGCCACAGTGTGTTAGGTATATGTTTGTTTCACGGAGTCACCTAGTGCAG,11700 fluorescence intensity (a.u.)
20,GAACGCGCGCGCCACCGCGCCGCCTCCGCCGCCGCCAGCGCGGAGTCACCTAGTGCAG,8300 fluorescence intensity (a.u.)
21,TTTTTTATGGCCCTTCTTTTTATATGTCTGATTGCTATTCCGGAGTCACCTAGTGCAG,9470 fluorescence intensity (a.u.)
22,GTGTGTTTTGATCTTCCTCTCTCTAGGAAAGCTCTGTTTCCGGAGTCACCTAGTGCAG,8360 fluorescence intensity (a.u.)
23,GCTCCCCGCCGCGCCGTCCGTCTCCGCCGTCGACCTCTCCCGGAGTCACCTAGTGCAG,15100 fluorescence intensity (a.u.)
24,ATTGATCACCCCATTCTCTACCATTTGTGTAGTTTTCCCACGGAGTCACCTAGTGCAG,10300 fluorescence intensity (a.u.)
25,GTTTTCTTTCTTTTTTTTTTCCACCTGTCGCACTGTACATCGGAGTCACCTAGTGCAG,11800 fluorescence intensity (a.u.)
26,AAAGATTCCGTTTCTTTCGAGCCCTTTTGGTCTCGGGTGGCGGAGTCACCTAGTGCAG,8550 fluorescence intensity (a.u.)
27,GGCAACAAAATTTACCTGCGTATATGTATTCGCTATATATCGGAGTCACCTAGTGCAG,8900 fluorescence intensity (a.u.)

row,Sequence,binding signal
1,TACAACAAACCTAACATCAGCTACTTGTCATCGATCATCACGGAGTCACCTAGTGCAG,8790 fluorescence intensity (a.u.)
2,CCACCTTCGCCCTTCTAGAACCTTCCCGCGTCCGCCAATGCGGAGTCACCTAGTGCAG,8190 fluorescence intensity (a.u.)
3,TGTTGCGTGTTGCCGCTCCGCTTTTAGGCTCTCATTGGTGCGGAGTCACCTAGTGCAG,8070 fluorescence intensity (a.u.)
4,TATCCATCATTCCATCCTCTCTCCCAGTCCCATCCTCAACCGGAGTCACCTAGTGCAG,9330 fluorescence intensity (a.u.)
5,CCTGTCTCTGTCCCTGTCATGTTGACTCCAACCGGGTTAACGGAGTCACCTAGTGCAG,9100 fluorescence intensity (a.u.)
6,TCGTCGCCATCATCGTCCCCGTCGCCCTGCGCCGCTGGCGCGGAGTCACCTAGTGCAG,8340 fluorescence intensity (a.u.)
7,CATATATAACTTCTACTCCTATCTATATATATCGCAAATACGGAGTCACCTAGTGCAG,8430 fluorescence intensity (a.u.)
8,GGGAAGGCGGCGATTGATTTGATTTGACCAAGATTGGTCGCGGAGTCACCTAGTGCAG,8090 fluorescence intensity (a.u.)
9,TCTCCACGAACCGGCCAAGCCCAATTCGCCGTTGAGTTCCCGGAGTCACCTAGTGCAG,8230 fluorescence intensity (a.u.)
10,CAGGGGTGGGTGTTAGCTGTTGTGCAAGAAGTGGTGTTTGCGGAGTCACCTAGTGCAG,10600 fluorescence intensity (a.u.)
11,GCCATCCAGACCCAGACCCACCCGAGACCACCACCATTATCGGAGTCACCTAGTGCAG,9670 fluorescence intensity (a.u.)
12,TTGTGTTCTGTTACTCTTATTCACCTTGGACACTGCATGACGGAGTCACCTAGTGCAG,10900 fluorescence intensity (a.u.)
13,TTCTACATTCTGTATCTTGATAATTCACTAAATTATGAACCGGAGTCACCTAGTGCAG,8400 fluorescence intensity (a.u.)
14,TTGCGTGTGTGTATGTATATCGAGCCTTGTCTCAACTCAACGGAGTCACCTAGTGCAG,12800 fluorescence intensity (a.u.)
15,AGGTCAGTTCTACATGTTCTAAATGTCTCCTATATATATTCGGAGTCACCTAGTGCAG,8340 fluorescence intensity (a.u.)
16,CGCCGCCTCGTCACCGACCCCGCCTTCCACCGCCGCTTCCCGGAGTCACCTAGTGCAG,8830 fluorescence intensity (a.u.)
17,GTTAATTGACCCCGCCCGTTCTATCCCATCGTCGCATCGACGGAGTCACCTAGTGCAG,9450 fluorescence intensity (a.u.)
18,CCATTCCGCCTCTCTCGGCCGGTCTCTCCTCGCGGGATAGCGGAGTCACCTAGTGCAG,8600 fluorescence intensity (a.u.)
19,AGTTGTTCTTCTCAGCAGGTTGCTGTCATCTTAGACTTTTCGGAGTCACCTAGTGCAG,8410 fluorescence intensity (a.u.)
20,GGTGGTGGTCTCATTGAGAAAGAGCGGTGGTGGCGGTCCGCGGAGTCACCTAGTGCAG,8880 fluorescence intensity (a.u.)
21,CCGACTCCACCCGCGGCTTATCCCTCCTTTTTTTTTTCTTCGGAGTCACCTAGTGCAG,9600 fluorescence intensity (a.u.)
22,CCACTTACCATGGCTGTTGTAGGCTTGTCAGGGCAACCCGCGGAGTCACCTAGTGCAG,8220 fluorescence intensity (a.u.)
23,CGTGCGGCCCATAATGTGTTGGGCTGGGGCAGAAATTCCGCGGAGTCACCTAGTGCAG,8550 fluorescence intensity (a.u.)
24,CCATCGCCTACCGCATTCAGGCACGTGCACGCCGCCCACCCGGAGTCACCTAGTGCAG,8290 fluorescence intensity (a.u.)
25,GTTTGACACCGTTGACTTTTTTAAATATGTTTGACCGTTTCGGAGTCACCTAGTGCAG,25000 fluorescence intensity (a.u.)
26,GCTCACGCCCTTTGCCTTGGCCACACGCCAGCGAATGACCCGGAGTCACCTAGTGCAG,8290 fluorescence intensity (a.u.)
27,TGTAGGGAAAATACGAAACTTCCTTACTGTTCAGCTTTTTCGGAGTCACCTAGTGCAG,8860 fluorescence intensity (a.u.)

# Copied from the results shown for reference:
row,Sequence,binding signal
20,GGTGGTGGTCTCATTGAGAAAGAGCGGTGGTGGCGGTCCGCGGAGTCACCTAGTGCAG,8880 fluorescence intensity (a.u.)
21,CCGACTCCACCCGCGGCTTATCCCTCCTTTTTTTTTTCTTCGGAGTCACCTAGTGCAG,9600 fluorescence intensity (a.u.)
22,CCACTTACCATGGCTGTTGTAGGCTTGTCAGGGCAACCCGCGGAGTCACCTAGTGCAG,8220 fluorescence intensity (a.u.)
23,CGTGCGGCCCATAATGTGTTGGGCTGGGGCAGAAATTCCGCGGAGTCACCTAGTGCAG,8550 fluorescence intensity (a.u.)
